PubChem BioAssay (NCATS)
For some of these results: This list holds what a sample rich in hits left over. Records with an inconclusive call do not appear. This is a selection; strong and weak results do not stand in their true shares. Activity calls are given as the source filed them. The call rests on the fitted dose curve; in most records, active means well fitted inhibition curve with a large enough effect; inconclusive means small, poorly fitted or top-dose-only effect; inactive means flat fitted curve, though single readings scatter.

Assays:
Assay in all cases: qHTS profiling for inhibitors of Plasmodium falciparum proliferation (AID 504749); further: nearly all actives have a fitted effect of over 60% in size;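 on activity, negative = inhibition: 0% = DMSO vehicle and full inhibition = artemisinin control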
CP217 = settings: P. falciparum in erythrocytes, SYBR Green DNA, 72 h
How it was run: (§1)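 P. falciparum-infected erythrocytes (0.3% parasitemia, 2.5% hematocrit final) were exposed to compounds for 72 h at 37 C in 5% CO2, then lysed with SYBR Green buffer overnight at room temperature; parasite DNA fluorescence was normalized to artemisinin and DMSO controls.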

CP237 = settings: P. falciparum in erythrocytes, SYBR Green DNA, 72 h
How it was run: as §1

CP238 = settings: P. falciparum in erythrocytes, SYBR Green DNA, 72 h
How it was run: as §1

CP247 = settings: P. falciparum in erythrocytes, SYBR Green DNA, 72 h
How it was run: as §1

CP250 = settings: P. falciparum in erythrocytes, SYBR Green DNA, 72 h
How it was run: as §1

CP252 = settings: P. falciparum in erythrocytes, SYBR Green DNA, 72 h
How it was run: as §1

CP256 = settings: P. falciparum in erythrocytes, SYBR Green DNA, 72 h
How it was run: as §1

CP260 = settings: P. falciparum in erythrocytes, SYBR Green DNA, 72 h
How it was run: as §1

CP262 = settings: P. falciparum in erythrocytes, SYBR Green DNA, 72 h; at 28.7 µM (top of the series)
How it was run: as §1

CP265 = settings: P. falciparum in erythrocytes, SYBR Green DNA, 72 h
How it was run: as §1

CP266 = settings: P. falciparum in erythrocytes, SYBR Green DNA, 72 h
How it was run: as §1

CP268 = settings: P. falciparum in erythrocytes, SYBR Green DNA, 72 h
How it was run: as §1

CP269 = settings: P. falciparum in erythrocytes, SYBR Green DNA, 72 h
How it was run: as §1

CP286 = settings: P. falciparum in erythrocytes, SYBR Green DNA, 72 h
How it was run: as §1

CP291 = settings: P. falciparum in erythrocytes, SYBR Green DNA, 72 h
How it was run: as §1

CP297 = settings: P. falciparum in erythrocytes, SYBR Green DNA, 72 h
How it was run: as §1

CP305 = settings: P. falciparum in erythrocytes, SYBR Green DNA, 72 h
How it was run: as §1

CP315 = settings: P. falciparum in erythrocytes, SYBR Green DNA, 72 h
How it was run: as §1

CP325 = settings: P. falciparum in erythrocytes, SYBR Green DNA, 72 h
How it was run: as §1

CP329 = settings: P. falciparum in erythrocytes, SYBR Green DNA, 72 h
How it was run: as §1

DFO2036 = settings: P. falciparum in erythrocytes, SYBR Green DNA, 72 h
How it was run: as §1

DIV14 = settings: P. falciparum in erythrocytes, SYBR Green DNA, 72 h
How it was run: as §1

DIV17 = settings: P. falciparum in erythrocytes, SYBR Green DNA, 72 h
How it was run: as §1

DIV30 = settings: P. falciparum in erythrocytes, SYBR Green DNA, 72 h
How it was run: as §1

Dd2 = settings: P. falciparum in erythrocytes, SYBR Green DNA, 72 h
How it was run: as §1

ECU = settings: P. falciparum in erythrocytes, SYBR Green DNA, 72 h
How it was run: as §1

FAB9 = settings: P. falciparum in erythrocytes, SYBR Green DNA, 72 h
How it was run: as §1

GB4 = settings: P. falciparum in erythrocytes, SYBR Green DNA, 72 h
How it was run: as §1

HB3 = settings: P. falciparum in erythrocytes, SYBR Green DNA, 72 h
How it was run: as §1

ICS = settings: P. falciparum in erythrocytes, SYBR Green DNA, 72 h
How it was run: as §1

JCK = settings: P. falciparum in erythrocytes, SYBR Green DNA, 72 h
How it was run: as §1

N140 = settings: P. falciparum in erythrocytes, SYBR Green DNA, 72 h
How it was run: as §1

P93_24 = settings: P. falciparum in erythrocytes, SYBR Green DNA, 72 h
How it was run: as §1

P94_40 = settings: P. falciparum in erythrocytes, SYBR Green DNA, 72 h
How it was run: as §1

PAD = settings: P. falciparum in erythrocytes, SYBR Green DNA, 72 h
How it was run: as §1

PC15 = settings: P. falciparum in erythrocytes, SYBR Green DNA, 72 h
How it was run: as §1

PC26 = settings: P. falciparum in erythrocytes, SYBR Green DNA, 72 h
How it was run: as §1

PC49 = settings: P. falciparum in erythrocytes, SYBR Green DNA, 72 h
How it was run: as §1

SC27B = settings: P. falciparum in erythrocytes, SYBR Green DNA, 72 h
How it was run: as §1

TAB109 = settings: P. falciparum in erythrocytes, SYBR Green DNA, 72 h
How it was run: as §1

TAB113 = settings: P. falciparum in erythrocytes, SYBR Green DNA, 72 h
How it was run: as §1

TAB165 = settings: P. falciparum in erythrocytes, SYBR Green DNA, 72 h
How it was run: as §1

W2 = settings: P. falciparum in erythrocytes, SYBR Green DNA, 72 h
How it was run: as §1
Potency means the concentration at half of the fitted maximal effect.

O=C(CCCCCCC(=O)Nc1ccccc1)NO
inactive: activity, negative = inhibition (CP262) -25%
active: Potency (CP217) 2820 nM | Potency (CP237) 355 nM | Potency (CP238) 794 nM | Potency (CP247) 141 nM | Potency (CP250) 708 nM | Potency (CP252) 562 nM | Potency (CP256) 562 nM | Potency (CP260) 501 nM | Potency (CP265) 891 nM | Potency (CP266) 1200 nM | Potency (CP268) 1350 nM | Potency (CP269) 757 nM | Potency (CP286) 1000 nM | Potency (CP291) 953 nM | Potency (CP297) 849 nM | Potency (CP305) 1200 nM | Potency (CP315) 953 nM | Potency (CP325) 1200 nM | Potency (CP329) 849 nM | Potency (DFO2036) 708 nM | Potency (DIV14) 478 nM | Potency (DIV17) 478 nM | Potency (DIV30) 1070 nM | Potency (Dd2) 224 nM | Potency (ECU) 794 nM | Potency (FAB9) 1410 nM | Potency (GB4) 757 nM | Potency (HB3) 708 nM | Potency (ICS) 447 nM | Potency (JCK) 3550 nM | Potency (N140) 562 nM | Potency (P93_24) 631 nM | Potency (P94_40) 631 nM | Potency (PAD) 708 nM | Potency (PC15) 1410 nM | Potency (PC26) 757 nM | Potency (PC49) 1000 nM | Potency (SC27B) 631 nM | Potency (TAB109) 447 nM | Potency (TAB113) 891 nM | Potency (TAB165) 501 nM | Potency (W2) 338 nM
